PubChem BioAssay AID1224830, NIAID – 2016
Here is an unselected part of about 18,000 reagents tested. In the full data, about 2,900 (16%) are marked active. 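Calls are made per well; low scores hint the gene aids the LPS response, high scores that it dampens it.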 A number with no mark means an inactive call. Repeated entries: four replicate wells of each siRNA pool.

Purpose: 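Host factors that control LPS-induced TNF expression in human macrophages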 (primary screen)
Cell system: human THP-1 monocytic leukaemia cells, TNF dual-luciferase reporter clone, PMA-differentiated to macrophage-like cells
Knock-down reagent: siRNA pool against human genes, 50 nM
Duration: LPS for 4 h, given about 3 days after siRNA transfection
Treatment: bacterial LPS (TLR4 ligand), 10 ng/ml
Measured: 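Ratio of firefly to renilla light, scaled to the plate median and expressed as a robust z-score per replicate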
Scale: TNF reporter robust z-score: higher = stronger TNF reporter response to LPS
Active means: 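Each well counts as active if its z-score is over 2.8 or under -1.5; controls are left without a call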

TNF reporter robust z-score | gene symbol
-1.11 | GLRA1 (GeneID 2741)
-0.04 | GLRA1 (GeneID 2741)
0 | GLRA1 (GeneID 2741)
-0.73 | GLRA1 (GeneID 2741)
-1.57 (active) | GPR15 (GeneID 2838)
-0.8 | GPR15 (GeneID 2838)
-0.69 | GPR15 (GeneID 2838)
-1.45 | GPR15 (GeneID 2838)
-0.06 | P3H2 (GeneID 55214)
-0.38 | P3H2 (GeneID 55214)
0 | P3H2 (GeneID 55214)
0.16 | P3H2 (GeneID 55214)
-0.14 | KRTAP5-3 (GeneID 387266)
-0.55 | KRTAP5-3 (GeneID 387266)
-0.19 | KRTAP5-3 (GeneID 387266)
-0.21 | KRTAP5-3 (GeneID 387266)
-0.09 | SCGB1A1 (GeneID 7356)
-0.32 | SCGB1A1 (GeneID 7356)
0.93 | SCGB1A1 (GeneID 7356)
0.49 | SCGB1A1 (GeneID 7356)
-1.52 (active) | MYNN (GeneID 55892)
-1.4 | MYNN (GeneID 55892)
-1.35 | MYNN (GeneID 55892)
-1.26 | MYNN (GeneID 55892)
-0.19 | SKAP2 (GeneID 8935)
-0.03 | SKAP2 (GeneID 8935)
0.41 | SKAP2 (GeneID 8935)
-0.41 | SKAP2 (GeneID 8935)
0.26 | PEX6 (GeneID 5190)
-0.66 | PEX6 (GeneID 5190)
0 | PEX6 (GeneID 5190)
0.13 | PEX6 (GeneID 5190)
-1.46 | GRAMD2B (GeneID 65983)
-0.57 | GRAMD2B (GeneID 65983)
0.95 | GRAMD2B (GeneID 65983)
-0.97 | GRAMD2B (GeneID 65983)
0 | MMP15 (GeneID 4324)
1.1 | MMP15 (GeneID 4324)
-0.44 | MMP15 (GeneID 4324)
0.01 | MMP15 (GeneID 4324)
-0.09 | NEK8 (GeneID 284086)
0.33 | NEK8 (GeneID 284086)
0.37 | NEK8 (GeneID 284086)
0.5 | NEK8 (GeneID 284086)
0.06 | CXXC1 (GeneID 30827)
-1.52 (active) | CXXC1 (GeneID 30827)
-1.24 | CXXC1 (GeneID 30827)
2.09 | CXXC1 (GeneID 30827)
-0.25 | JAM3 (GeneID 83700)
-0.82 | JAM3 (GeneID 83700)
-0.8 | JAM3 (GeneID 83700)
-0.01 | JAM3 (GeneID 83700)
0.39 | WDSUB1 (GeneID 151525)
0.77 | WDSUB1 (GeneID 151525)
0.85 | WDSUB1 (GeneID 151525)
3.31 (active) | WDSUB1 (GeneID 151525)
-0.02 | TRADD (GeneID 8717)
0.77 | TRADD (GeneID 8717)
0.03 | TRADD (GeneID 8717)
0.05 | TRADD (GeneID 8717)

The list goes on.
TNF reporter robust z-score | gene symbol
0.12 | NFATC2 (GeneID 4773)
0.35 | NFATC2 (GeneID 4773)
0.81 | NFATC2 (GeneID 4773)
1.22 | NFATC2 (GeneID 4773)
0.34 | SLC41A2 (GeneID 84102)
0.6 | SLC41A2 (GeneID 84102)
0.03 | SLC41A2 (GeneID 84102)
-0.2 | SLC41A2 (GeneID 84102)
1.81 | IL2RA (GeneID 3559)
2.33 | IL2RA (GeneID 3559)
2.32 | IL2RA (GeneID 3559)
1.4 | IL2RA (GeneID 3559)
2.29 | KRT33B (GeneID 3884)
0.5 | KRT33B (GeneID 3884)
1.33 | KRT33B (GeneID 3884)
2.75 | KRT33B (GeneID 3884)
-0.7 | OCEL1 (GeneID 79629)
-0.77 | OCEL1 (GeneID 79629)
-0.67 | OCEL1 (GeneID 79629)
-0.69 | OCEL1 (GeneID 79629)
1.66 | ARHGAP1 (GeneID 392)
0.58 | ARHGAP1 (GeneID 392)
1.37 | ARHGAP1 (GeneID 392)
-0.71 | ARHGAP1 (GeneID 392)
-1.22 | IQCJ (GeneID 654502)
-1.18 | IQCJ (GeneID 654502)
0.82 | IQCJ (GeneID 654502)
-0.71 | IQCJ (GeneID 654502)
-0.86 | ARHGEF9 (GeneID 23229)
-0.07 | ARHGEF9 (GeneID 23229)
0.3 | ARHGEF9 (GeneID 23229)
0.61 | ARHGEF9 (GeneID 23229)
0.72 | ADHFE1 (GeneID 137872)
0.6 | ADHFE1 (GeneID 137872)
0.17 | ADHFE1 (GeneID 137872)
0.55 | ADHFE1 (GeneID 137872)
-0.41 | TAF2 (GeneID 6873)
-0.45 | TAF2 (GeneID 6873)
-0.26 | TAF2 (GeneID 6873)
-0.21 | TAF2 (GeneID 6873)
0.31 | C16orf89 (GeneID 146556)
-0.19 | C16orf89 (GeneID 146556)
-0.2 | C16orf89 (GeneID 146556)
0.13 | C16orf89 (GeneID 146556)
-0.01 | AP3M1 (GeneID 26985)
0.48 | AP3M1 (GeneID 26985)
0.82 | AP3M1 (GeneID 26985)
1.07 | AP3M1 (GeneID 26985)
2.4 | TMEM37 (GeneID 140738)
-0.78 | TMEM37 (GeneID 140738)
0.91 | TMEM37 (GeneID 140738)
1.14 | TMEM37 (GeneID 140738)
